Data as given in PubChem BioAssay AID1508597 (Cure First, 2020)
Purpose: 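Knock-downs altering ovarian cancer cell survival with or without PARP inhibitor rucaparib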 (primary screen). Cell system: human ovarian carcinoma lines grown from tumours: OCI-P5x (papillary serous) and OCI-C5x (clear cell). Knock-down reagent: siRNA pool against human genes, 1.25 pmol siRNA per well. Duration: 72 h or 96 h, depending on the cell culture. Challenge: rucaparib 20 µM (about IC30) or vehicle, present until read-out. Rucaparib or vehicle: Rucaparib. Cell line: OCI-C5x (clear cell). Detection: 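Luminescent ATP-based viability assay read 72 or 96 h after transfection, depending on culture, given as normalised percent viability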. Scale: viability, normalised: higher = more viable cells remaining. Call rule: 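Active when normalised viability falls below 80 percent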. Meaning of the calls: active = viability under 80%; inactive = viability 80% or more.
Shown is an unselected part of the about 2,100 reagents, under one of the conditions tested. 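Calls flag viability under 80% in either arm, not effects specific to rucaparib; the reference for percent is not stated.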 The numbers tell different reagents against one gene apart. The record does not give: the 100% reference.

Target gene	reagent no.	technical replicate	viability, normalised (%)	activity call
RAD51D (RAD51 paralog D)	1	1	46.8	active
RAD51D (RAD51 paralog D)	1	2	50.1	active
RAD51D (RAD51 paralog D)	1	3	61.1	active
RAD51D (RAD51 paralog D)	2	1	54.2	active
RAD51D (RAD51 paralog D)	2	2	75.1	active
RAD51D (RAD51 paralog D)	2	3	60.9	active
DTYMK (deoxythymidylate kinase)	1	1	59.5	active
DTYMK (deoxythymidylate kinase)	1	2	56.4	active
DTYMK (deoxythymidylate kinase)	1	3	51.1	active
PINK1 (PTEN induced kinase 1)	1	1	60.1	active
PINK1 (PTEN induced kinase 1)	1	2	54.8	active
PINK1 (PTEN induced kinase 1)	1	3	78.5	active
MIER2 (MIER family member 2)	1	1	43.9	active
MIER2 (MIER family member 2)	1	2	40.8	active
MIER2 (MIER family member 2)	1	3	41.4	active
SRPK1 (SRSF protein kinase 1)	1	1	73.9	active
SRPK1 (SRSF protein kinase 1)	1	2	75.1	active
SRPK1 (SRSF protein kinase 1)	1	3	30.6	active
CLK4 (CDC like kinase 4)	1	1	66.6	active
CLK4 (CDC like kinase 4)	1	2	63.6	active
CLK4 (CDC like kinase 4)	1	3	65	active
ACVR2A (activin A receptor type 2A)	1	1	38.8	active
ACVR2A (activin A receptor type 2A)	1	2	48.7	active
ACVR2A (activin A receptor type 2A)	1	3	53.3	active
L3MBTL2 (L3MBTL histone methyl-lysine binding protein 2)	1	1	33.3	active
L3MBTL2 (L3MBTL histone methyl-lysine binding protein 2)	1	2	26.9	active
L3MBTL2 (L3MBTL histone methyl-lysine binding protein 2)	1	3	41.9	active

9 entries from above, reformatted.
Target gene,reagent no.,technical replicate,"viability, normalised (%)",activity call
RAD51D (RAD51 paralog D),1,1,46.8,active
RAD51D (RAD51 paralog D),1,2,50.1,active
RAD51D (RAD51 paralog D),1,3,61.1,active
RAD51D (RAD51 paralog D),2,1,54.2,active
RAD51D (RAD51 paralog D),2,2,75.1,active
RAD51D (RAD51 paralog D),2,3,60.9,active
DTYMK (deoxythymidylate kinase),1,1,59.5,active
DTYMK (deoxythymidylate kinase),1,2,56.4,active
DTYMK (deoxythymidylate kinase),1,3,51.1,active

The list goes on.
Target gene	reagent no.	technical replicate	viability, normalised (%)	activity call
MAK (male germ cell associated kinase)	1	1	54.6	active
MAK (male germ cell associated kinase)	1	2	52.8	active
MAK (male germ cell associated kinase)	1	3	61.6	active
NLGN2 (neuroligin 2)	1	1	51.5	active
NLGN2 (neuroligin 2)	1	2	43.6	active
NLGN2 (neuroligin 2)	1	3	54.9	active
FCSK (fucose kinase)	1	1	57.5	active
FCSK (fucose kinase)	1	2	37.8	active
FCSK (fucose kinase)	1	3	56.6	active
CDYL2 (chromodomain Y like 2)	1	1	35.9	active
CDYL2 (chromodomain Y like 2)	1	2	34.4	active
CDYL2 (chromodomain Y like 2)	1	3	37.8	active
FOXC1 (forkhead box C1)	1	1	54.4	active
FOXC1 (forkhead box C1)	1	2	44	active
FOXC1 (forkhead box C1)	1	3	51.4	active
ARID5A (AT-rich interaction domain 5A)	1	1	48.6	active
ARID5A (AT-rich interaction domain 5A)	1	2	45.4	active
ARID5A (AT-rich interaction domain 5A)	1	3	39.1	active
RFC1 (replication factor C subunit 1)	1	1	51.1	active
RFC1 (replication factor C subunit 1)	1	2	45.9	active
RFC1 (replication factor C subunit 1)	1	3	51.8	active
GPX4 (glutathione peroxidase 4)	1	1	56.2	active
GPX4 (glutathione peroxidase 4)	1	2	46.1	active
GPX4 (glutathione peroxidase 4)	1	3	46.9	active
DPF2 (double PHD fingers 2)	1	1	49.9	active
DPF2 (double PHD fingers 2)	1	2	56.6	active
DPF2 (double PHD fingers 2)	1	3	41.6	active
EPC1 (enhancer of polycomb 1)	1	1	60.6	active
EPC1 (enhancer of polycomb 1)	1	2	55.9	active
EPC1 (enhancer of polycomb 1)	1	3	51.5	active
